Test results taken from PMC5037330, “Large-Scale Movements of IF3 and tRNA during Bacterial Translation Initiation” (Cell, 2016).
No constants are given. Whether binding was seen depends on the method and setting. Some entries that bind do so weakly or less than the wild type.

Molecular target: T1, IF1 Thermus thermophilus (Thermus thermophilus) (UniProt Q5SHR1)
T1 sequence: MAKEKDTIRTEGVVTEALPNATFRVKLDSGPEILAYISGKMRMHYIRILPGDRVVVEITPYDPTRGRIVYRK
Assay: cryo-EM structure; Sample 2 (with IF2): 30S:IF1:IF2:IF3:tRNA:mRNA 1:3:3:3:3:3, complex at 100 nM, IF2 preincubated with 0.2 mM GDPCP, 10 mM MES pH 6.5, 5 mM MgOAc, 50 mM KCl, 10 mM NH4Cl, 6 mM BME; put on grids without further purification; classes PIC-I to PIC-III; both purified

binding: binds
B1: IF2 Thermus thermophilus (protein, UniProt P48515 1-571)
chain: MAKVRIYQLAKELGMETQELLELLDQMGVAYKSHASTLEEKDAEAVRELVKEQRGLQEKLAEEERRKSLPRRPPVVVIMGHVDHGKTTLLDYLRKSRIAEKEAGGITQHVGAFEVKTPQGTVVFIDTPGHEAFTTIRQRGAKVADIAVIVIAADDGIMPQTEEAIAHAKAAGAKLIFAINKIDLPQADPEKVKRQLMERGFVPEEYGGDAIVIPISAKTGQGVQDLLEMILLLAELEDYRADPNAEPRGVILESKLDKQAGIIANMLVQEGTFRVGDYVVAGEAYGRIRAMMDADGNQRKEAGPGSAVQVLGFQELPHAGDVVEWVPDLEAAKEIAEERKEERKAREEEEKARRPRTMAELLRAMQEEGRKELNLILRADTQGSLEAIQHILARESTEDVKINILLAQVGAPTESDVLLAQTANAAILAFGVNPPGSVKKKAEEKGVLLKTFRIIYDLVDEVRNMVKGQREPQYKEEVLGQAEVRAIFRLPTGKQVAGCMVTQGRIPRNAEVRVLRDGQVIWQGRIASLKRFKEDVREVAQGYECGIGLDGFDDFREGDVIEAFQMVEVPA
